This is a selection; strong and weak results do not stand in their true shares. At the low end of the ranking the order means little.

The experiment concerns the target SPI1 (UniProt P17947). Kind of experiment: DAPPL (digital affinity profiling via proximity ligation, sequencing). Particulars: 10 mM Tris-HCl pH 7.5, 50 mM NaCl, 1 mM DTT, 4% glycerol, room temperature, 30 min; GST-TFs on glutathione beads, 16-mer random dsDNA library, 0.1% …; high values mean tight binding; double strand, one strand shown; scale: fold enrichment (6-mer frequency, TF over GST control).
With TGAGAT, the binding signal was 0.65.

In turn, GAGCCG gave a binding signal of 0.404.

As for GATTGG, the binding signal came out at 0.84.

With TGGGGG, the binding signal was found to be 0.679.

In turn, CGTGAG displayed a binding signal of 0.113.

On to GGGCGG, for which the binding signal worked out at 0.404.

Consider ACGCAA, for which the binding signal came out at 0.883.

The sequence GAGCTA gave a binding signal of 0.972.

As for TGGGCC, the binding signal was 0.902.

On to AACCGT, for which the binding signal came to 0.501.

In turn, CCTAGT registered a binding signal of 0.902.

In the case of GGCCGT, the binding signal is 0.403.

Regarding GACGGT, the binding signal is 0.469.

The sequence TGGAGT came in with a binding signal of 0.498.

Take ATGAGT: the binding signal amounted to 0.673.

With GGTTGG, the binding signal is 0.804.

On to AGGCAT, for which the binding signal stood at 0.792.

The sequence GGTGCT yielded a binding signal of 0.852.

Turning to CAGAGG, the binding signal was found to be 0.578.

In turn, GTACCG yielded a binding signal of 0.748.

AGACAC came in with a binding signal of 0.738.

The sequence ACGTGG returned a binding signal of 0.532.

Turning to GAGCTG, the binding signal was 0.737.

CTGAGT: the binding signal was found to be 0.616.

Regarding CAGGGA, the binding signal was 0.533.

Consider CGGGCA, for which the binding signal was found to be 0.699.

As for GGACCC, the binding signal was 0.776.

GCGTGT gave a binding signal of 0.62.

GGGATA gave a binding signal of 0.736.

In turn, GTAGTC showed a binding signal of 0.667.

Regarding CCAGGC, the binding signal was found to be 0.396.

The sequence GAGCGG yielded a binding signal of 0.545.

On to GTAGGT, for which the binding signal is 0.788.

In turn, AGGGAC gave a binding signal of 0.736.

The sequence CGCGAG returned a binding signal of 0.568.

AGAGTT registered a binding signal of 0.796.

For GCGGCC, the binding signal was 0.838.

The sequence TGAGCC registered a binding signal of 0.834.

As to ACAACG, the binding signal stood at 0.93.

For CCGGGC, the binding signal amounted to 0.813.

The record behind these values is article PMC7862700.
